Structures can show the parent of a compound that is named as a salt. Some of the results follow. Single values are uncertain here, since repeats match poorly.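 JEG3 cells stably express tetracycline-inducible wild-type human LRH-1, a highly sumoylated nuclear receptor. SUMO-sensitive transcripts APOC3 and MUC1, increased by SUMO-deficient LRH-1 or UBC9 knockdown, were quantified by RT-qPCR relative to TBP and DMSO controls. Primary hits had robust Z-scores above +2 or below -2, before toxicity and TBP filtering.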
tested on: JEG3 expressing hLRH-1; test: MUC1 transcript change (ddCt vs TBP and DMSO), Z-score over library; higher = higher MUC1 expression; details: 10 µM; time (hr): 24

SMILES	MUC1 transcript change (Z-score)
COc1ccc2nc3cc(Cl)ccc3c(Nc3cc(CN4CCCC4)c(O)c(CN4CCCC4)c3)c2n1 [pyronaridine tetraphosphate]	-0.323
OCC(S)CS (stereo unspecified) [dimercaptopropanol]	-0.499
[Li+] [lithium citrate]	0.996
COc1ccc(C2C(=O)c3ccccc3C2=O)cc1 [anisindione]	0.541
CCC(=O)OCC(=O)[C@@]1(OC(=O)CC)[C@H](C)CC2C3C([C@@H](O)C[C@@]21C)[C@@]1(C)C=CC(=O)C=C1C[C@H]3Cl (stereo partly specified) [alclometazone dipropionate]	-1.18
C=C[C@@]1(C)CC(=O)[C@@]2(O)[C@](C)(O1)[C@@H](OC(C)=O)[C@@H](O)C1C(C)(C)CC[C@H](O)[C@@]12C (stereo partly specified) [colforsin]	-5.72
NC(=O)C1(N2CCCCC2)CCN(CCCC(=O)c2ccc(F)cc2)CC1 [pipamperone]	0.638
COc1c2occc2c(OC)c2c(=O)cc(C)oc12 [khellin]	0.614
NC(=O)CC[C@H](N)C(=O)O [L-Glutamine]	0.984
CCCC(C(=O)OCCN(CC)CC)(c1ccccc1)c1ccccc1 [SKF-525A hydrochloride]	0.705
NC(=O)C1CCCN1C(=O)C(Cc1c[nH]cn1)NC(=O)C1CCC(=O)N1 (stereo unspecified) [protirelin]	0.535
CN1CCC[C@H]1c1cccnc1 [nicotine ditartrate]	0.463
Cc1cc(C(C)(C)C)cc(C)c1CC1=NCCN1 [xylometazoline hydrochloride]	0.999
CC1(C)S[C@@H]2[C@H](NC(=O)COc3ccccc3)C(=O)N2[C@H]1C(=O)O [penicillin v potassium]	0.695
CCCC(=O)O[C@]1(C(=O)CO)CC[C@H]2[C@@H]3CCC4=CC(=O)CC[C@]4(C)[C@H]3[C@@H](O)C[C@@]21C [hydrocortisone butyrate]	-0.451
O=c1[nH]c(=O)n([C@H]2C[C@H](O)[C@@H](CO)O2)cc1C(F)(F)F [trifluridine]	2.72
CCCOc1ccccc1-c1nc(O)c2[nH]nnc2n1 [Zaprinast]	-0.241
CCC1OC(=O)[C@H](C)C(=O)[C@H](C)[C@@H](OC2O[C@H](C)C[C@H](N(C)C)[C@H]2O)[C@](C)(OC)C[C@@H](C)C(=O)[C@@H](C)[C@@H]2N(CCCCn3cnc(-c4cccnc4)c3)C(=O)O[C@]12C (stereo partly specified) [telithromycin]	-0.000653
N=C(N)NC(=O)Cc1c(Cl)cccc1Cl [guanfacine hydrochloride]	0.624
CC1=C(C/C=C(\C)CCC[C@H](C)CCC[C@H](C)CCCC(C)C)C(=O)c2ccccc2C1=O [phytonadione]	0.724
CCCCCCCCNC(C)C(O)c1ccc(SC(C)C)cc1 (stereo unspecified) [suloctidil]	-0.249
C[C@H]1O[C@@H](O[C@H]2[C@@H](O)C[C@H](O[C@H]3[C@@H](O)C[C@H](O[C@H]4CC[C@@]5(C)[C@H](CC[C@@H]6[C@@H]5CC[C@]5(C)[C@@H](C7=CC(=O)OC7)CC[C@]65O)C4)O[C@@H]3C)O[C@@H]2C)C[C@H](O)[C@@H]1O [digitoxin]	0.0347
CN(Cc1cnc2nc(N)nc(N)c2n1)c1ccc(C(=O)NC(CCC(=O)O)C(=O)O)cc1 (racemic) [methotrexate(+/-)]	0.516
NCc1ccccc1CC(=O)NC1C(=O)N2C(C(=O)O)=C(CSc3nnnn3CC(=O)O)CSC12 (stereo unspecified) [ceforanide]	0.11
O=S(=O)(O)CCCS(=O)(=O)O [eprodisate disodium]	0.0755
COc1cc(NS(=O)(=O)c2ccc(N)cc2)nc(OC)n1 [sulfadimethoxine]	0.501

SMILES	MUC1 transcript change (Z-score)
CC(C)c1nc(N(C)S(C)(=O)=O)nc(-c2ccc(F)cc2)c1/C=C/[C@@H](O)C[C@@H](O)CC(=O)O [rosuvastatin]	-0.0371
CN1C2CCC1CC(OC(=O)c1c[nH]c3ccccc13)C2 (stereo unspecified) [3-Tropanyl-indole-3-carboxylate hydrochloride]	0.857
CC(=O)OCC(=O)[C@@]1(O)[C@H](OC(C)=O)C[C@H]2[C@@H]3CCC4=CC(=O)C=C[C@]4(C)[C@@]3(F)[C@@H](O)C[C@@]21C [triamcinolone diacetate]	-0.257
O=C1OC2(c3ccc(O)cc3Oc3cc(O)ccc32)c2ccccc21 [fluorescein]	-0.8
CCCCNc1ccc(C(=O)OCCN(C)C)cc1 [Tetracaine hydrochloride]	0.0457
CC(=O)Oc1cccc(C(=O)O)c1OC(C)=O [dipyrocetyl]	0.62
CN(C)CCC(c1ccccc1)c1ccccn1 (stereo unspecified) [pheniramine maleate]	0.36
NCCc1cc[nH]n1 [betazole hydrochloride]	0.582
CC(C)(Sc1cc(C(C)(C)C)c(O)c(C(C)(C)C)c1)Sc1cc(C(C)(C)C)c(O)c(C(C)(C)C)c1 [probucol]	-0.713
CN(C)CCOC(=O)C(c1ccccc1)C1(O)CCCC1 (stereo unspecified) [cyclopentolate hydrochloride]	-0.255
CC(=O)Nc1ccc(S(=O)(=O)Nc2ccc([N+](=O)[O-])cc2)cc1 [sulfanitran]	0.874
Nc1ccc(C(=O)NCC(=O)O)cc1 [aminohippuric acid]	0.192
Nc1nc(O)c2c(n1)NCC(CNc1ccc(C(=O)N[C@@H](CCC(=O)O)C(=O)O)cc1)N2C=O (stereo partly specified) [leucovorin calcium]	0.504
CC(=O)N[C@@H]1[C@@H](C(O)[C@H](O)CO)O[C@](O)(C(=O)O)C[C@@H]1O (stereo partly specified) [n-acetylneuramic acid]	0.671
CC[C@H](C)C(=O)O[C@H]1CCC=C2C=C[C@H](C)C(CCC3C[C@@H](O)CC(=O)O3)[C@H]21 (stereo partly specified) [compactin]	-0.25
NCC(=O)CCC(=O)O [aminolevulinic acid hydrochloride]	0.548
COc1ccc(CN(CCN(C)C)c2ncccn2)cc1 [thonzylamine hydrochloride]	-0.278
Cn1c([N+](=O)[O-])cnc1COC(N)=O [ronidazole]	0.0558
Cc1ccc(C)c(OCCCC(C)(C)C(=O)O)c1 [gemfibrozil]	0.0605
C=CCNC(N)=S [allylthiourea]	-0.389
C[C@]12CCC(=O)C=C1C=C[C@@H]1[C@@H]2CC[C@@]2(C)[C@H]1CC[C@@]21CCC(=O)O1 [canrenone]	0.309
CC1(C)[C@@H](O)CC[C@]2(C)[C@H]3C(=O)C=C4[C@@H]5C[C@@](C)(C(=O)O)CC[C@]5(C)CC[C@@]4(C)[C@]3(C)CC[C@@H]12 [enoxolone]	0.213
C/C=C/C(=O)N(CC)c1ccccc1C [crotamiton]	-0.437
NC(=O)N1c2ccccc2CC(=O)c2ccccc21 [oxcarbazepine]	0.278
CC(C)(C)NCC(O)COc1cccc2c1CCCC2=O (stereo unspecified) [levobunolol hydrochloride]	0.576
NCCS [Cysteamine hydrochloride]	0.672

Single values from the list.
Value of CCCOc1ccccc1-c1nc(O)c2[nH]nnc2n1 [Zaprinast] under MUC1 transcript change (Z-score): -0.241
Value of CCCC(C(=O)OCCN(CC)CC)(c1ccccc1)c1ccccc1 [SKF-525A hydrochloride] under MUC1 transcript change (Z-score): 0.705
Value of CC(C)(Sc1cc(C(C)(C)C)c(O)c(C(C)(C)C)c1)Sc1cc(C(C)(C)C)c(O)c(C(C)(C)C)c1 [probucol] under MUC1 transcript change (Z-score): -0.713
Value of CCC(=O)OCC(=O)[C@@]1(OC(=O)CC)[C@H](C)CC2C3C([C@@H](O)C[C@@]21C)[C@@]1(C)C=CC(=O)C=C1C[C@H]3Cl (stereo partly specified) [alclometazone dipropionate] under MUC1 transcript change (Z-score): -1.18

Next results.

SMILES	MUC1 transcript change (Z-score)
Cc1c(NC(=O)c2cccnc2)c(=O)n(-c2ccccc2)n1C [nifenazone]	-1.85
CC(O)CC(C)(C)O (stereo unspecified) [hexylene glycol]	0.287
O=C(O)c1ccccc1-c1c2cc(I)c(=O)c(I)c-2oc2c(I)c(O)c(I)cc12 [erythrosine sodium]	-0.898
CC1=C(CC(=O)O)c2cc(F)ccc2/C1=C\c1ccc(S(C)=O)cc1 (stereo unspecified) [Sulindac]	-1.3
C#CCN[C@@H]1CCc2ccccc21 [rasagiline]	0.119
CCOC(=O)c1ccc(O)cc1 [ethyl paraben]	0.794
CCN(CC)CCNC(=O)c1ccc(NC(C)=O)cc1 [N-Acetylprocainamide hydrochloride]	0.767
Clc1ccc(Cn2c(CN3CCCC3)nc3ccccc32)cc1 [clemizole hydrochloride]	-0.464
Cc1c(N(C)C)c(=O)n(-c2ccccc2)n1C [aminopyrine]	0.236
C#C[C@]1(O)CCC2C3CCC4=CC(=O)CC[C@@H]4C3CC[C@@]21CC (stereo partly specified) [norgestrel]	0.183
O=C(O)CCCCC1SCC2NC(=O)NC21 (stereo unspecified) [biotin]	0.707
CC(C)(C)NCC(O)c1ccc(O)c(CO)c1 (stereo unspecified) [Albuterol hemisulfate]	0.994
S=C=Nc1ccc(N=C=S)cc1 [bitoscanate]	0.351
CCCC(CCC)C(=O)O [Valproic acid sodium]	0.405
Cc1onc(-c2ccccc2)c1C(=O)N[C@@H]1C(=O)N2[C@@H]1SC(C)(C)[C@@H]2C(=O)O [oxacillin sodium]	0.35
CCN(CCCc1ccccc1)CCCc1ccccc1 [alverine citrate]	0.906
CCn1cc(C(=O)O)c(=O)c2cc(F)c(N3CCN(C)CC3)cc21 [pefloxacine mesylate]	0.397
Clc1ccc(C(c2ccccc2Cl)C(Cl)Cl)cc1 (stereo unspecified) [mitotane]	0.775
CCCc1nc2c(C)cc(-c3nc4ccccc4n3C)cc2n1Cc1ccc(-c2ccccc2C(=O)O)cc1 [telmisartan]	0.607
CCCNCC(O)COc1ccccc1C(=O)CCc1ccccc1 (stereo unspecified) [propafenone hydrochloride]	0.68
CCCN(CCC)CCc1cccc2c1CC(=O)N2 [ropinirole hydrochloride]	1.18
CC(C)/N=c1\cc2n(-c3ccc(Cl)cc3)c3ccccc3nc-2cc1Nc1ccc(Cl)cc1 [clofazimine]	0.141
CC1(C)S[C@@H]2[C@H](N3C(=O)[C@@H](c4ccccc4)NC3(C)C)C(=O)N2[C@H]1C(=O)O [hetacillin potassium]	0.715
CO[C@H]1C[C@H](O[C@H]2[C@H](C)[C@@H](OC3O[C@H](C)C[C@H](N(C)C)[C@H]3O)[C@@H](C)C[C@]3(CO3)C(=O)[C@H](C)[C@@H](O)[C@@H](C)[C@@H](C)OC(=O)[C@@H]2C)O[C@@H](C)[C@@H]1O (stereo partly specified) [oleandomycin phosphate]	-0.275
